This note sets out measurements from PMC2475507.

Sequences of proteins named here, by UniProt entry; tags and fusion partners are left off.
UniProt Q00987: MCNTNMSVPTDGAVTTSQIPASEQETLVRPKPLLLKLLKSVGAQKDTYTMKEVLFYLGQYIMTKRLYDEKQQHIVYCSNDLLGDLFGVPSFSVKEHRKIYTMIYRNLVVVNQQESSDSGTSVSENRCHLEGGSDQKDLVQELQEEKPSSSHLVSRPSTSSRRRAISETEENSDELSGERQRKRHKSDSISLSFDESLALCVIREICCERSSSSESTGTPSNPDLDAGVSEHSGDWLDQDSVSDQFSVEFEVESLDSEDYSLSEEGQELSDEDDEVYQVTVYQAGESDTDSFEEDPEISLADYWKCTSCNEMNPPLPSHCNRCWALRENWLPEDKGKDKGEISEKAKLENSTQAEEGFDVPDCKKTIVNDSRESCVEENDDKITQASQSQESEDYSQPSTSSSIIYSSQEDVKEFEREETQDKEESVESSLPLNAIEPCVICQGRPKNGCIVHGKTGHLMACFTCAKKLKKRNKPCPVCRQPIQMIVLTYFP
UniProt P98177: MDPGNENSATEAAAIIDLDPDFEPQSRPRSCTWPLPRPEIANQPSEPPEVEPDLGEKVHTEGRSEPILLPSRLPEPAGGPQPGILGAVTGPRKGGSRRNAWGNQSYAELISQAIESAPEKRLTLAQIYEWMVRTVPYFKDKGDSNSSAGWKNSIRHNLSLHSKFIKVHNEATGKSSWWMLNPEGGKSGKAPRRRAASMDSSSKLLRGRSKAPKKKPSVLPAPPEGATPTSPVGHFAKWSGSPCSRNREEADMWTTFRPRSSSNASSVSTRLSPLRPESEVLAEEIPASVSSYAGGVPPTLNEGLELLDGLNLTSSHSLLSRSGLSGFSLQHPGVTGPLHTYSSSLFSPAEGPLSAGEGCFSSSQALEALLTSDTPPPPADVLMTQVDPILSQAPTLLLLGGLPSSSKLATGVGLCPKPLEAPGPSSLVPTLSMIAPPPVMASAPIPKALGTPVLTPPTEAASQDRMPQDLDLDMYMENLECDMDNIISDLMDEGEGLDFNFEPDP

Test [1] concerns the target Flag-Mdm2 (UniProt Q00987). As to the kind of experiment: co-IP; tagged FOXO4 and tagged Mdm2 co-expressed in HEK293T cells; precipitated with Flag antibody pre-coupled to Protein-A Sepharose; Co-IP buffer 20 mM Tris-HCl pH 8.0, 1% NP-40, 10% glycerol, 1 mM MgCl2, 1 mM EDTA, 150 mM NaCl; western blot.
The target of test [2] is Flag-FOXO4 (UniProt P98177). The description is as above.
Test [3] concerns the target endogenous Mdm2 (human (endogenous in HEK293T)) (UniProt Q00987). The test is described as follows: co-IP; endogenous proteins of HEK293T cells; precipitated for FOXO4, Mdm2 or isotype controls; cells treated with 200 µM hydrogen peroxide for 15 min before lysis; Co-IP buffer 20 mM Tris-HCl pH 8.0, 1% NP-40, 10% glycerol, 1 mM MgCl2, 1 mM EDTA, 150 mM NaCl.
Test [4] addresses endogenous FOXO4 (human (endogenous in HEK293T)) (UniProt P98177). The description is as above.

Results are given in words; binding and its absence hold for the method and conditions named. Binding seen in cells or lysates may run through a third protein. Some entries that bind do so weakly or less than the wild type.

In the case of HA-FOXO4 (from UniProt P98177 1-505), the binding result in test [1] was “binds”.

As to “Myc-Mdm2 (from UniProt Q00987 1-491) (enzyme)”, the binding result in test [2] is recorded as “binds”.

For “endogenous FOXO4 (from UniProt P98177 1-505)”, the binding entry in test [3] is “binds”.

As to “endogenous Mdm2 (from UniProt Q00987 1-491) (enzyme)”, the binding entry in test [4] was “binds”.
